No constants are given. Whether binding was seen depends on the method and setting. Binding seen in cells or lysates may run through a third protein. Some binding calls cover weakened binding; strength is not graded here.

Sequences of proteins named here, by UniProt entry; tags and fusion partners are left off. A change or cut given only in a name is not applied to a line headed by its entry.
UniProt P9WJ69, whole entry, looked up, stated change not applied: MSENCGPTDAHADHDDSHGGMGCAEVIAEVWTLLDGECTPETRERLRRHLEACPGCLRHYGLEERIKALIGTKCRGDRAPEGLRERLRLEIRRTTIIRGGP

The target in this experiment is GST-tagged RshA CXXC to AXXA mutant (Mycobacterium tuberculosis H37Rv) (UniProt P9WJ69). Briefly: pull-down; soluble fractions of two E. coli lysates (5.0 mg crude protein each; GST fusion and 6xHis protein) mixed in 50 mM Tris HCl pH 7.5, 100 mM NaCl, 10 mM DTT, 0.01% Triton X-100, 4°C 3 h; glutathione resin 2 h 22°C; washes up to 300 mM NaCl; Coomassie and anti-6xHis blot.

Take “Mycobacterium tuberculosis SigH, 6xHis-tagged (pET29a) (from UniProt P9WGH9 1-216)”: the binding result is “binds”.

Source of the values: publication PMC3427169, “Interaction of Mycobacterium tuberculosis RshA and SigH Is Mediated by Salt Bridges” (PLoS ONE, 2012).
